Measurements reported in PubChem BioAssay AID1159584 (Peter MacCallum Cancer Centre, 2016).

Aim: 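Genes that CDH1-null MCF10A cells selectively depend on to survive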 (primary screen)
System: human MCF10A breast epithelial cells, parental and CDH1-null
Reagent: siRNA against human genes
Detection: 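Cell viability by CellTiter-Glo ATP luminescence, each line scaled to the mean of mock wells across plates, then CDH1-null over parental ratio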
Reading the numbers: CDH1-null / parental viability ratio: higher = CDH1-null cells survive relatively better than parental; CDH1-null viability vs mock: higher = more viable CDH1-null cells
Units: CDH1-null viability vs mock in fraction of mock
The deposit covers about 18,000 reagents; below is a part drawn at random. The numbers tell different reagents against one gene apart. Not all columns of the deposit are shown. Not given: the amount of reagent, the time to read-out.

TAS2R10
- CDH1-null / parental viability ratio: 1.33
- CDH1-null viability vs mock: 0.73

ZC3H18-DT
- CDH1-null / parental viability ratio: 1.42
- CDH1-null viability vs mock: 0.57

FUT4
- CDH1-null / parental viability ratio: 0.74
- CDH1-null viability vs mock: 0.46

CCSER1
- CDH1-null / parental viability ratio: 0.81
- CDH1-null viability vs mock: 0.6

STIMATE
- CDH1-null / parental viability ratio: 0.95
- CDH1-null viability vs mock: 0.78

RXFP3
- CDH1-null / parental viability ratio: 1.41
- CDH1-null viability vs mock: 1.03

XAGE5
- CDH1-null / parental viability ratio: 0.73
- CDH1-null viability vs mock: 0.47

METTL21A
- CDH1-null / parental viability ratio: 0.99
- CDH1-null viability vs mock: 0.87

NAE1
- CDH1-null / parental viability ratio: 0.89
- CDH1-null viability vs mock: 0.68

TMOD3
- CDH1-null / parental viability ratio: 1.09
- CDH1-null viability vs mock: 0.76

ZNF767P
- CDH1-null / parental viability ratio: 0.94
- CDH1-null viability vs mock: 0.77

CORO2B
- CDH1-null / parental viability ratio: 1.03
- CDH1-null viability vs mock: 0.78

HSFX1
- CDH1-null / parental viability ratio: 0.87
- CDH1-null viability vs mock: 0.66

ACKR4
- CDH1-null / parental viability ratio: 1.43
- CDH1-null viability vs mock: 0.97

MAP4K2
- CDH1-null / parental viability ratio: 1
- CDH1-null viability vs mock: 0.88

FBXW4
- CDH1-null / parental viability ratio: 0.86
- CDH1-null viability vs mock: 0.48

ZNF449
- CDH1-null / parental viability ratio: 0.99
- CDH1-null viability vs mock: 0.98

ELF5
- CDH1-null / parental viability ratio: 0.88
- CDH1-null viability vs mock: 0.91

RLIG1
- CDH1-null / parental viability ratio: 1.16
- CDH1-null viability vs mock: 0.74

GFOD1 #1
- CDH1-null / parental viability ratio: 1.16
- CDH1-null viability vs mock: 0.92

GFOD1 #2
- CDH1-null / parental viability ratio: 1.09
- CDH1-null viability vs mock: 0.87

ATP9B
- CDH1-null / parental viability ratio: 1.07
- CDH1-null viability vs mock: 1.07

BLOC1S5
- CDH1-null / parental viability ratio: 0.86
- CDH1-null viability vs mock: 0.62

SLC39A1
- CDH1-null / parental viability ratio: 1.01
- CDH1-null viability vs mock: 0.86

LRRC23
- CDH1-null / parental viability ratio: 0.75
- CDH1-null viability vs mock: 0.92

CCDC112
- CDH1-null / parental viability ratio: 0.77
- CDH1-null viability vs mock: 0.63

NUCB2
- CDH1-null / parental viability ratio: 1.21
- CDH1-null viability vs mock: 0.63

UFM1
- CDH1-null / parental viability ratio: 1.44
- CDH1-null viability vs mock: 0.98

GOLGA3
- CDH1-null / parental viability ratio: 1.18
- CDH1-null viability vs mock: 0.86

LIMK1
- CDH1-null / parental viability ratio: 1.06
- CDH1-null viability vs mock: 1.08

STX6
- CDH1-null / parental viability ratio: 1.65
- CDH1-null viability vs mock: 0.56

ZBED8
- CDH1-null / parental viability ratio: 1
- CDH1-null viability vs mock: 0.66

TMEM31
- CDH1-null / parental viability ratio: 1.24
- CDH1-null viability vs mock: 1.02

ZDHHC8
- CDH1-null / parental viability ratio: 1.33
- CDH1-null viability vs mock: 0.72

NXF3
- CDH1-null / parental viability ratio: 1.32
- CDH1-null viability vs mock: 0.5

In a second layout: 4 of the entries above.
target gene	reagent	CDH1-null / parental viability ratio	CDH1-null viability vs mock
MAP4K2	1	1	0.88
FBXW4	1	0.86	0.48
ZNF449	1	0.99	0.98
ELF5	1	0.88	0.91
